According to publication PMC5668370:
No constants are given. Whether binding was seen depends on the method and setting. In cells and extracts the contact can be indirect. Some binding calls cover weakened binding; strength is not graded here. Where a sequence is shown, tags or fusion partners need not be part of it.

The chains behind the UniProt entries cited, without tags or fusion partners.
UniProt Q5NCX5: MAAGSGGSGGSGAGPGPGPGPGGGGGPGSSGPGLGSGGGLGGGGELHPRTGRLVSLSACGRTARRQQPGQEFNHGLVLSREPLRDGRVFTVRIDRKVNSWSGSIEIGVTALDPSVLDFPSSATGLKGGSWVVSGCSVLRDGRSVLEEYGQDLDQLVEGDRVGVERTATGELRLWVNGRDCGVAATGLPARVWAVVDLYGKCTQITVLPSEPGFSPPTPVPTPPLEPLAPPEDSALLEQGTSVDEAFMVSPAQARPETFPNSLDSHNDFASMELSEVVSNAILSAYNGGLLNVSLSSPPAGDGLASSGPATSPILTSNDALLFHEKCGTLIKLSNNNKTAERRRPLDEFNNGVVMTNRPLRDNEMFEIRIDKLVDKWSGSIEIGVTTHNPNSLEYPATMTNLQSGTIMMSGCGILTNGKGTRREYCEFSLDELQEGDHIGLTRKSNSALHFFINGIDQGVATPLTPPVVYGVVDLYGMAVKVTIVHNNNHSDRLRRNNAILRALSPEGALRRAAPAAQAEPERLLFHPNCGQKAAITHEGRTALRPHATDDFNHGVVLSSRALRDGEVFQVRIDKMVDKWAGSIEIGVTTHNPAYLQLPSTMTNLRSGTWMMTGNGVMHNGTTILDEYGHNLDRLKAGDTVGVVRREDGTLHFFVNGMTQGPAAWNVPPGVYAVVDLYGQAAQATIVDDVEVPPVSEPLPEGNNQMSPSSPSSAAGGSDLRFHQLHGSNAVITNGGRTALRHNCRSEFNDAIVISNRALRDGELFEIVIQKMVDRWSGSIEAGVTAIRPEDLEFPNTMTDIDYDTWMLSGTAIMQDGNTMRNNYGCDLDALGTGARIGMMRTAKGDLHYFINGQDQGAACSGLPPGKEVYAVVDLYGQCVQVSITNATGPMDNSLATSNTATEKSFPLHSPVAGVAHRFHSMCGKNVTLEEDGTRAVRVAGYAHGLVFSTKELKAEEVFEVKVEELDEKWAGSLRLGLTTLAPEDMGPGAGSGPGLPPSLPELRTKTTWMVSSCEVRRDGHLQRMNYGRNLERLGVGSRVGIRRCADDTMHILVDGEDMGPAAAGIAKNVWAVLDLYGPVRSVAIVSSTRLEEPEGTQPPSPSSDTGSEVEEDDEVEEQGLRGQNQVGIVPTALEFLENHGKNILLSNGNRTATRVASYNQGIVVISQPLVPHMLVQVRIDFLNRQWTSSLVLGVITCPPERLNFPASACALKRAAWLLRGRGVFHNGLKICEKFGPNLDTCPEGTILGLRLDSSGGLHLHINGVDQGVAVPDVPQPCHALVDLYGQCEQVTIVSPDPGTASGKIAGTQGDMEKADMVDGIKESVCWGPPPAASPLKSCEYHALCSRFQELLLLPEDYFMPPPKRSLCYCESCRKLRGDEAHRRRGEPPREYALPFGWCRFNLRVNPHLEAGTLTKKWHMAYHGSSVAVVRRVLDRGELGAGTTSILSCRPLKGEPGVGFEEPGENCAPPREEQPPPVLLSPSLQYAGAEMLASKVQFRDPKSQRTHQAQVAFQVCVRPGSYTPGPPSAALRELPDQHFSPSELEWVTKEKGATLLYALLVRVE
UniProt Q4U2R1: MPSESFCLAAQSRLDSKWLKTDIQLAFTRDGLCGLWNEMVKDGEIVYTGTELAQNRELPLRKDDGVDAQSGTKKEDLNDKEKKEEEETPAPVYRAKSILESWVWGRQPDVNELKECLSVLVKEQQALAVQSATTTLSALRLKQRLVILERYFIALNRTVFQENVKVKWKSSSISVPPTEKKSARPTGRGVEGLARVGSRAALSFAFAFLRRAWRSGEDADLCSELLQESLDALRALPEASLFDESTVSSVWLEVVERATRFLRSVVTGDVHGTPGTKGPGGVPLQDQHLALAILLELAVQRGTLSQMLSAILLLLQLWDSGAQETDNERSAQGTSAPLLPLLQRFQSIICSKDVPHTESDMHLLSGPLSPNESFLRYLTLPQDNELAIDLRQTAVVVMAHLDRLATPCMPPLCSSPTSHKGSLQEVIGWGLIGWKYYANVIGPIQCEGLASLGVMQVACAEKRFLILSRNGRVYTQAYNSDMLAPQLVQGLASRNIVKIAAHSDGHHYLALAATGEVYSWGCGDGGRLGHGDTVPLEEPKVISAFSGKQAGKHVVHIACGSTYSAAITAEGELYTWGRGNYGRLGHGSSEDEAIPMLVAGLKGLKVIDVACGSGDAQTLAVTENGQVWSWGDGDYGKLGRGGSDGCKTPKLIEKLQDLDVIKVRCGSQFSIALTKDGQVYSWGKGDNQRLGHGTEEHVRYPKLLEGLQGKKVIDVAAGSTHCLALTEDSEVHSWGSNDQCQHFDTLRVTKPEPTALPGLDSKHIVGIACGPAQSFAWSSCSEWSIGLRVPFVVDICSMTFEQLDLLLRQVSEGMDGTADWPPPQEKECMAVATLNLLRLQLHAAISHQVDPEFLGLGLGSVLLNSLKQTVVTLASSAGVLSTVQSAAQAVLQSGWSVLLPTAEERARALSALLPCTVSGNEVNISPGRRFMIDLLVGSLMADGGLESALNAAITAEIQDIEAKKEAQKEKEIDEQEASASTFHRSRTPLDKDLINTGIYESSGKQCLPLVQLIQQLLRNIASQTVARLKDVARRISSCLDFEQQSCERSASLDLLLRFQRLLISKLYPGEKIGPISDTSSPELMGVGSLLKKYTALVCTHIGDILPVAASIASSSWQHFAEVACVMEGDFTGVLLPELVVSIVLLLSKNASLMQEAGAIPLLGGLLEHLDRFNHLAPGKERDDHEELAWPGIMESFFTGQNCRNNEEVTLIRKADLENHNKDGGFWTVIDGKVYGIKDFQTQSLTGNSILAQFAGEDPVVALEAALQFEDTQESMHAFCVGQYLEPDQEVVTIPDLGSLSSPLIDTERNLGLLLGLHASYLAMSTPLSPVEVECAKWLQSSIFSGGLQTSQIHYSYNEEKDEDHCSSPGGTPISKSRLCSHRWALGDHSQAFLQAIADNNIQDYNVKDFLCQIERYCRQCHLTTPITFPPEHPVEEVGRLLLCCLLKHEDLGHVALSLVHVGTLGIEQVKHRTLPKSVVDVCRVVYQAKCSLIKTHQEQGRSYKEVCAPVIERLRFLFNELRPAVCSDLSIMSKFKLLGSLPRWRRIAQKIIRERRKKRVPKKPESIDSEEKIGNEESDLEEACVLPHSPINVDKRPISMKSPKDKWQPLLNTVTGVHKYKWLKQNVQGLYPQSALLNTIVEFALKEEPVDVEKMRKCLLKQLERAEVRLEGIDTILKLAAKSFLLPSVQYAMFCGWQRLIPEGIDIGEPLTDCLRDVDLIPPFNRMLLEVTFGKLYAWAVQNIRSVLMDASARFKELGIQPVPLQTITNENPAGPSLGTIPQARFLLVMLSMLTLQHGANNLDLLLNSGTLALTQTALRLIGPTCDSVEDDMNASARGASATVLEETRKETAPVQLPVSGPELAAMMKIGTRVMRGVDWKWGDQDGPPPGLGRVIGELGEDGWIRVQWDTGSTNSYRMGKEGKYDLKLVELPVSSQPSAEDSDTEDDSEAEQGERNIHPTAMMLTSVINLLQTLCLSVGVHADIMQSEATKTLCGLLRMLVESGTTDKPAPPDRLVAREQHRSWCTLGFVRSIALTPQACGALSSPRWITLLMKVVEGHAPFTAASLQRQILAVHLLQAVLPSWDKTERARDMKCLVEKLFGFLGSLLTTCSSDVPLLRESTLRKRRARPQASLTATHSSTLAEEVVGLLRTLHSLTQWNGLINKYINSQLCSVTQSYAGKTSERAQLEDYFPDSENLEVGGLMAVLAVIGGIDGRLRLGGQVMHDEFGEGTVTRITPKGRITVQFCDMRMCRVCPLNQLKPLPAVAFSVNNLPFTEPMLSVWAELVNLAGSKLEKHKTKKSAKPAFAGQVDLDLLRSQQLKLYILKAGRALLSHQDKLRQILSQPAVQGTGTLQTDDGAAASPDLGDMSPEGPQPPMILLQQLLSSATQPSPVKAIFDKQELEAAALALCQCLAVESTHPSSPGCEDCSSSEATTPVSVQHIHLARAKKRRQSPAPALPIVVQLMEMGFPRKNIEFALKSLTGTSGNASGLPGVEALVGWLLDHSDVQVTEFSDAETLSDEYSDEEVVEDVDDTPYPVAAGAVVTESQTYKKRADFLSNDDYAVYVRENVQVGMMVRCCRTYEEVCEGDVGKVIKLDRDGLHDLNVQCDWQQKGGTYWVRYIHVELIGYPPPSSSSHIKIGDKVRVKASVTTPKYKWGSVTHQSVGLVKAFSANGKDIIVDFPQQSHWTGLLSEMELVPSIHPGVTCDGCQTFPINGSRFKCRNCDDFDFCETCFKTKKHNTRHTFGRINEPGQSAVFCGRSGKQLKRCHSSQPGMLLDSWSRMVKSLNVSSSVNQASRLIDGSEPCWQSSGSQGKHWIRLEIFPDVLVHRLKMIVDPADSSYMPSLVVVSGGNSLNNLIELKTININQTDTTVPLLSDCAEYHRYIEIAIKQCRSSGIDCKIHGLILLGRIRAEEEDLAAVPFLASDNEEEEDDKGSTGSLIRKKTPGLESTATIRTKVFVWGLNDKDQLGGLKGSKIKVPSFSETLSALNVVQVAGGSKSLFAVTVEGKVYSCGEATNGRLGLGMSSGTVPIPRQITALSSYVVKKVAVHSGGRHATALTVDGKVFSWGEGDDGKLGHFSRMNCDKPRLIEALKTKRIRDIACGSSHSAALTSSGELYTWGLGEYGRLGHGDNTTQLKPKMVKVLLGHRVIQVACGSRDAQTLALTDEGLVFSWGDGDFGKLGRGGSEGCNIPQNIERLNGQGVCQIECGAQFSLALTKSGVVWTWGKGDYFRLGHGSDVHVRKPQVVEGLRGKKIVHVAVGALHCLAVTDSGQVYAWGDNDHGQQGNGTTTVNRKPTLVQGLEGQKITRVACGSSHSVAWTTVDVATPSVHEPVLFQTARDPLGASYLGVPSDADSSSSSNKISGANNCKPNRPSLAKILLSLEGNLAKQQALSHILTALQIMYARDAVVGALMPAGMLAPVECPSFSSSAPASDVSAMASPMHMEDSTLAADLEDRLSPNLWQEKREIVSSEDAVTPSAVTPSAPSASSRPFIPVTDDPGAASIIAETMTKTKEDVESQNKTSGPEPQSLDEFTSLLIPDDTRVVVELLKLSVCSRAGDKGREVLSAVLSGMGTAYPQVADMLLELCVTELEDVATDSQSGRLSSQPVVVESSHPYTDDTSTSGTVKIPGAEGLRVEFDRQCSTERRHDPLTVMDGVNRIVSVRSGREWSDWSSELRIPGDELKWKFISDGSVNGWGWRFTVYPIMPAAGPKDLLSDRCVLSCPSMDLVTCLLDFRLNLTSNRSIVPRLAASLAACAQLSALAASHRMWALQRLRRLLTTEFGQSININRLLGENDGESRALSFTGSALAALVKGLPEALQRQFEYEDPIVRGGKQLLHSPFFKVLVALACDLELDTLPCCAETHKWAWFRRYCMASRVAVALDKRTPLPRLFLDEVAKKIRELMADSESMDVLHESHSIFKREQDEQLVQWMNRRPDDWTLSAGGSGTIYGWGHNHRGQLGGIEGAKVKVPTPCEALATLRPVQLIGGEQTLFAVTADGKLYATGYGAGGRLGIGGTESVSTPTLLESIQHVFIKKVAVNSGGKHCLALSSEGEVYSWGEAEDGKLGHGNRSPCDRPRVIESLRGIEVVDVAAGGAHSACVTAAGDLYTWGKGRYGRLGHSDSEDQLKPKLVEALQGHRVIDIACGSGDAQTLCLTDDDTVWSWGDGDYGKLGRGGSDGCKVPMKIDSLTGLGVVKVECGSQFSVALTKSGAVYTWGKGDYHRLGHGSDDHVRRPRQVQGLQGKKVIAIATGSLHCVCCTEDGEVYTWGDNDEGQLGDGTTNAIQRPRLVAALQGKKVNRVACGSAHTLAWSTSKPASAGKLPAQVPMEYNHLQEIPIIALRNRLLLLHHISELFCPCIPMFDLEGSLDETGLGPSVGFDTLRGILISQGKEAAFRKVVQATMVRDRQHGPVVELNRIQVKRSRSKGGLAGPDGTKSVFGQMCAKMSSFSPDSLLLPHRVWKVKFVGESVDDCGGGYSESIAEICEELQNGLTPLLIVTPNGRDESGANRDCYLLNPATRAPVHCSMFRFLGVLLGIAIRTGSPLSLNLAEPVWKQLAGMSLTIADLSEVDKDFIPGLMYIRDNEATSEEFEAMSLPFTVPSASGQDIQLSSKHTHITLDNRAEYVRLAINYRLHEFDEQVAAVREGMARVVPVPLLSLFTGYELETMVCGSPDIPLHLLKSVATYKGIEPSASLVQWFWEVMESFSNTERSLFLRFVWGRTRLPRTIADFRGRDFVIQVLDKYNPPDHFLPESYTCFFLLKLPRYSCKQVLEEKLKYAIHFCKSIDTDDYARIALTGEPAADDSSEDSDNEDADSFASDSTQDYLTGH

Target: T1, FLAG-RNF8 (rat) (UniProt Q4KLN8)
T1 sequence: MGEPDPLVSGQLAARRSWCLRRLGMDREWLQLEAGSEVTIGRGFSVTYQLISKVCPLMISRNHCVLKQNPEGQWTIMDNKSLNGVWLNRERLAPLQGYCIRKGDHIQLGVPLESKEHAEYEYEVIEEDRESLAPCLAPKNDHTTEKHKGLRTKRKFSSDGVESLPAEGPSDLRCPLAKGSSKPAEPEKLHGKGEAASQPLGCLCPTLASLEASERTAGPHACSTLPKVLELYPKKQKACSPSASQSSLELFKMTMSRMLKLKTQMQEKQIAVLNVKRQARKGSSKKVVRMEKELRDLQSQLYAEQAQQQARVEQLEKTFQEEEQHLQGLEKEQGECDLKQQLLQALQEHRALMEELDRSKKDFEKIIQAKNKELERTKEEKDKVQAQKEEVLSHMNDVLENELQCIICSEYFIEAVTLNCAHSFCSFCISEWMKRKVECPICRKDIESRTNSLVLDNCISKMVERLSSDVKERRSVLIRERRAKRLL
Experiment: co-IP; Lysates of Neuro2A cells constitutively expressing FLAG-RNF8 on FlagM2 agarose beads, 4 h; lysis buffer 50 mM Tris-HCl pH8.0, 150 mM NaCl, 20% glycerol, 1% Triton X-100; immunoblotting

binding	Substance
binds	NEURL4 (endogenous, Neuro2A) (from UniProt Q5NCX5 1-1563)
binds	HERC2 (endogenous, Neuro2A) (from UniProt Q4U2R1 1-4836)
